Results: the supplement of paper PMC7024190
Where a name gives a salt, the structure may show the parent alone. The list shows a part of the results. Single values are uncertain here, since repeats match poorly.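 Human embryonic kidney cells were transiently transfected with a plasmid bearing a Renilla luciferase gene under the HSV-TK promoter. This first-round screen tests roughly ten thousand compounds for ones that increase reporter output.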

What follows are compounds tested on HEK 293FT (assay: log relative Renilla luciferase luminescence (reporter expression vs reference, reference not stated) (log (base not stated)); higher = higher recombinant reporter expression). Details: 10 µM; time after transfection 48 h.
Compound `COC(=O)C1=C(C)NC(C)=C([N+](=O)[O-])C1c1ccccc1C(F)(F)F` (racemic) has a log of 0.0254. `CC(C)[C@H]1c2ccc(F)cc2CC[C@@]1(CCN(C)CCCc1nc2ccccc2[nH]1)OC(=O)C1CC1` [NNC 55-0396 dihydrochloride] gave a log of -0.456. With `CC(=O)Nc1ccc(O)cc1` [Acetaminophen] the log was 0.023. Compound `Nc1ncnc2c1ncn2[C@@H]1O[C@H](CO)C[C@H]1O` [Cordycepin] has a log of -0.151. In the case of `Cc1cccc(C)c1OCC(C)N` (stereo unspecified) [Mexiletine hydrochloride], the log is reported as 0.0511. `CN/C(=N\c1ccc(C2=NNC(=O)CC2C)cc1)NC#N` (stereo unspecified) [Siguazodan] gave a log of 0.0525. With `CCCCn1c(=O)c2[nH]c(C34CC5CC(CC3C5)C4)nc2n(CCCO)c1=O` the log was -0.0142. `O=C(O)c1ccccc1Nc1cccc(OCc2ccc3ccccc3n2)c1` [SR 2640 hydrochloride] gave a log of 0.125. In the case of `NC(=O)CCCCn1ccc(NC(N)=NCC(F)(F)F)n1`, the log is reported as 0.0419. `c1cc2c3c(c1)c1c(n3CCNC2)CCCC1` [WAY 629 hydrochloride] gave a log of 0.1. `Nc1nc2c(ncn2COCCO)c(=O)[nH]1` [Acyclovir] gave a log of -0.0188. In the case of `COC1(C2=NCCN2)COc2ccccc2O1` (stereo unspecified), the log is reported as -0.0416. In the case of `CC(C)[C@H](NS(=O)(=O)c1ccc(-c2ccc(Br)cc2)cc1)C(=O)O`, the log is reported as -0.222. Compound `Clc1cccc(Nc2nnc(-c3ccccc3)c3ccccc23)c1` has a log of 0.0958. `O=C1C(=O)N(Cc2ccc(Cl)c(Cl)c2)c2ccccc21` [Apoptosis Activator 2] showed a log of -0.012. Compound `CCn1ccnc1CC1COc2ccccc2O1` (stereo unspecified) [Imiloxan hydrochloride] has a log of 0.0801.
